# From PubChem BioAssay (EPA / NIEHS)
# This list was built around the results that the source calls inconclusive (neither active nor inactive); the mix of calls is not that of the screen. For some assays here: Potencies of inconclusive entries are doubtful fits and often do not repeat. The source made the active and inactive calls. The calls were made as follows: active = hit-call score of the fitted dose curve at least 0.9, where 1 is the maximum; inconclusive = response in the unintended direction; inactive = score below 0.9.
# How the values were obtained:
# [1] = IUF_NPC1_cytotoxicity_72hr: Cytotoxicity Assessment at 72 hours in the Leibniz Research Institute for Environmental Medicine (IUF) Neural Progenitor Cell Proliferation Assay (NPC1) (AID 2284332);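 also: rising LDH signal means more cytotoxicity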
# Summary of the method: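 Single human fetal cortex neural progenitor spheres (GW 16-19, 0.25-0.35 mm) in EGF/FGF proliferation medium were exposed to compound for 72 h at 37C without renewal. Medium LDH release was read as resorufin fluorescence and fitted as gain-of-signal.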
# [2] = VALA_TUBIPS_Agonist_CellCount: Viability Assessment in the VALA Sciences human iPS-derived Endothelial Tubule Formation (TUBIPS) Agonism Assay (AID 2284338)
Structure (SMILES),AC50 [1],outcome [2]
CN1CCC[C@H]1c1cccnc1,inconclusive: 16.8 µM,–
Cn1cc[nH]c1=S,–,inactive
